In article PMC6158172, “A bidentate Polycomb Repressive-Deubiquitinase complex is required for efficient activity on nucleosomes” (Nature Communications, 2018) one finds binding data, which are given here for two molecules.

By UniProt entry, the sequences of proteins in these tests, tags left out. Where a name states a change or a piece, a line headed by the entry shows the natural chain unless it says otherwise. Residues count along the entry.
UniProt Q92560: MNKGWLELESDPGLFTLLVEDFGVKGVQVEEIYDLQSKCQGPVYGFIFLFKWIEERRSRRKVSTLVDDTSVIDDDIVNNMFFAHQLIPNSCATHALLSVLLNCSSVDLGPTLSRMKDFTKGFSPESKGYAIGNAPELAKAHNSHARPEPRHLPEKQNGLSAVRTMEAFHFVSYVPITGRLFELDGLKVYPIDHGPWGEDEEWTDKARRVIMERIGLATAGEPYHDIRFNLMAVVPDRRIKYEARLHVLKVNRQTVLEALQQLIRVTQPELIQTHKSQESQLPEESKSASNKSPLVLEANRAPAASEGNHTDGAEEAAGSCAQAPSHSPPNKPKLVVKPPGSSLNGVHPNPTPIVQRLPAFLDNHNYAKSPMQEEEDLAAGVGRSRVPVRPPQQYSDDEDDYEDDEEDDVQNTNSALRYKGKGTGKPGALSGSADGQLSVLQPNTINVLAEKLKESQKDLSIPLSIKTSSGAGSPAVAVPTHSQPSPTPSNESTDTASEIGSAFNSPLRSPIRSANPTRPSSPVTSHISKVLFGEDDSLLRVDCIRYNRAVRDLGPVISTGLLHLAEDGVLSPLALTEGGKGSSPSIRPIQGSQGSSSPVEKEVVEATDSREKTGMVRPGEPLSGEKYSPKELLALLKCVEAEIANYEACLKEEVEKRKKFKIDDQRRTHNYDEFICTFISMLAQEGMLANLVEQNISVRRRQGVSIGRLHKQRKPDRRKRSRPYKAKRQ
BAP1^1–712 (wild type), as in the BAP1^1–712–ASXL1^247–366 complex: residues 1-712 of Q92560
UniProt Q8IXJ9, residues 247-366: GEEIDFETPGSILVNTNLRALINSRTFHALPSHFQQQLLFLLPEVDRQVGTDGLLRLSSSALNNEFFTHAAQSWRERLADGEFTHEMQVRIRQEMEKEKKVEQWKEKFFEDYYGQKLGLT

Experiment [1] deals with BAP1(N251R)^1–729, as in the BAP1(N251R)–ASXL1 complex (human) (UniProt Q92560). The experiment can be described thus: co-purification; co-expressed in insect cells (Tni or Sf9) from baculovirus; Ni-NTA by the His6 tag on Calypso or BAP1, elution with 500 mM imidazole, dialysis.
Experiment [2] addresses BAP1^1–729 (wild type), as in the BAP1^1–729–ASXL1^247–366 complex (human) (UniProt Q92560). The experiment is described as above.
For experiment [3], the target named is BAP1(L635A)^1–729, as in the BAP1(L635A)–ASXL1 complex (human) (UniProt Q92560). Described as above.
The target in experiment [4] is BAP1^1–712 (wild type), as in the BAP1^1–712–ASXL1^247–366 complex (human) (UniProt Q92560). Described as above.
Experiment [5] deals with Calypso^43–404 (wild type), as in the Calypso^43–404–ASX^207–340 complex (Drosophila melanogaster) (UniProt Q7K5N4). The experiment can be described thus: AUC; sedimentation velocity, c(s) analysis at 1, 4 and 18 µM complex, 20 °C, 20 mM HEPES pH 7.8, 100 mM NaCl, 0.8 mM TCEP; 2:2 complex to 1:1 units; both purified.

These are yes or no findings as the source states them, for the method shown. Some results given as binding are weak or reduced against the parent protein; the word gives no strength.

For “StrepII-ASXL1^247–366 (Deubad domain) (from UniProt Q8IXJ9 247-366) (domain or fragment)”, the binding entry in experiment [1], in experiment [2], in experiment [3] and in experiment [4] was “binds” throughout.

B1: Calypso^43–404 (wild type), as in the Calypso^43–404–ASX^207–340 complex (enzyme, Drosophila melanogaster, UniProt Q7K5N4 43-404, looked up)
chain: ADGWLELESDPGLFTLLLKDFGCHDVQVEEVYDLQKPIESPYGFIFLFRWIEERRARRKIVETTAEIFVKDEEAISSIFFAQQVVPNSCATHALLSVLLNCNENNLQLGDTLSRLKTHTKGMSPENKGLAIGNTPELACAHNSHAMPQARRRLERTGAGVSSCRFTGEAFHFVSFVPINGQLFELDGLKPYPMNHGGWEDSEDWTDKFRRVMAERLGIATGEQDIRFNLMAVVPDRRIAITHKLKMLRTNQAIVSGTLQKLLKADEQGESGNGDSQRPDTPTTLLEPSAFTARDLQSLLKNLDTEIAINEQHLADENDRRHMFKVDASRRTHNYDKFICTFLSMLAHQGVLGELVSQHLLPS
notes: Calypso, deubiquitinase of the Drosophila PR-DUB, residues 43-404 (UCH domain, coiled-coil hairpin, ULD; lacks the C-terminal positively charged tail 405-471); Always handled together with ASX 207-340, with which it was co-expressed; two copies per 2:2 complex at high concentration; also called WT^(no tail); Calypso^(no tail); source: E. coli BL21 (DE3), co-expressed with ASX, purified …
In the case of B1, the binding entry in experiment [5] was “binds weakly”.
